Experiment: Manufacturing filtration time
Settings: for Filtration Time: batches of approximately 20 kg scale, 0.25 m^2 filter area, same equipment; for time to filter the batch: recent manufacturing procedure, batches of comparable size, same filter/dryer equipment

| Compound | Filtration Time [h] | time to filter the batch [h] |
| --- | --- | --- |
| CNC(=O)c1ccccc1Sc1ccc2c(/C=C/c3ccccn3)n[nH]c2c1 [Form IV, 6-[2-(methylcarbamoyl)phenylsulfanyl]-3-E-[2-(pyridin-2-yl)ethenyl]indazole] | 25.9 | 26 |
| CNC(=O)c1ccccc1Sc1ccc2c(/C=C/c3ccccn3)n[nH]c2c1 [Form XLI, 6-[2-(methylcarbamoyl)phenylsulfanyl]-3-E-[2-(pyridin-2-yl)ethenyl]indazole] | 0.1 |  |
| CNC(=O)c1ccccc1Sc1ccc2c(/C=C/c3ccccn3)n[nH]c2c1 [Form XXV, 6-[2-(methylcarbamoyl)phenylsulfanyl]-3-E-[2-(pyridin-2-yl)ethenyl]indazole] | 4.0 | 4 |

From patent US8791140B2, “Crystalline forms of 6-[2-(methylcarbamoyl)phenylsulfanyl]-3-E-[2-(pyridin-2-yl)ethenyondazole suitable for the treatment of abnormal cell growth in mammals” (Pfizer Inc., priority 2007, dated 2014)
